These are yes or no findings as the source states them, for the method shown. In cells and extracts the contact can be indirect. Some results given as binding are weak or reduced against the parent protein; the word gives no strength.
Legend:
[1] = biological target: Serine/threonine-protein kinase ATR (human (endogenous in MDA-MB-231)) (UniProt Q13535); experiment: proximity ligation; control and AEP KD MDA-MB-231 cells on coverslips, fixed with 4% paraformaldehyde, permeabilized with ice-cold methanol; stained with anti-AEP and anti-ATR or anti-AEP and anti-PPP1R10 (1:200)
[2] = biological target: T1, Serine/threonine-protein phosphatase 1 regulatory subunit 10 (human (endogenous in MDA-MB-231)) (UniProt Q96QC0); experiment: as above
T1 sequence: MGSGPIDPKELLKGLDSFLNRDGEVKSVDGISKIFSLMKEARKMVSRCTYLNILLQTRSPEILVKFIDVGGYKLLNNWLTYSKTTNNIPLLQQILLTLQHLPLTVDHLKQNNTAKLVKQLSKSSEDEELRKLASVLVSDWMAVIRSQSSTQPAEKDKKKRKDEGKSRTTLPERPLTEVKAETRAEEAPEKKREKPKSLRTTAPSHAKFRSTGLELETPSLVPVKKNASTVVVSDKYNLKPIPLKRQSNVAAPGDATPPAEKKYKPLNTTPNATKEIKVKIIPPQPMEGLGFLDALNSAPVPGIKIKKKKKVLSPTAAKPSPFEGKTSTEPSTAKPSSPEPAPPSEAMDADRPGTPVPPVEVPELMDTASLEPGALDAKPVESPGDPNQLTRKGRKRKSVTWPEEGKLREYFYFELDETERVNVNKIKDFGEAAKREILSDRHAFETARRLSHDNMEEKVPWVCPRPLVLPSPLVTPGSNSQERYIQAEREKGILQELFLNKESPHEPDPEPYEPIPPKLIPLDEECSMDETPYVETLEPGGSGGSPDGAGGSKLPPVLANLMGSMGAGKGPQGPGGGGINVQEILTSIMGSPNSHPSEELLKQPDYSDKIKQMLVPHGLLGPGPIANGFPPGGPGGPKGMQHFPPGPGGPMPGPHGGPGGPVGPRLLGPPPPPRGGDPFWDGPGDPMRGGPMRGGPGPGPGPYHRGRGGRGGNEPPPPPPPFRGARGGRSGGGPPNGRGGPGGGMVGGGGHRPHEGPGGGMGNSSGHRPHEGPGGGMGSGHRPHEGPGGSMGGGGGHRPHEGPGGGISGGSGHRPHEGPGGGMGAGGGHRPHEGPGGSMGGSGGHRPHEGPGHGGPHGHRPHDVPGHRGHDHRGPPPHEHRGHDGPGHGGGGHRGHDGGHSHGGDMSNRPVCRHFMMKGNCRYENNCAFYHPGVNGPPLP

Amino acid sequences for entries named in this document (tags omitted).
UniProt Q13535: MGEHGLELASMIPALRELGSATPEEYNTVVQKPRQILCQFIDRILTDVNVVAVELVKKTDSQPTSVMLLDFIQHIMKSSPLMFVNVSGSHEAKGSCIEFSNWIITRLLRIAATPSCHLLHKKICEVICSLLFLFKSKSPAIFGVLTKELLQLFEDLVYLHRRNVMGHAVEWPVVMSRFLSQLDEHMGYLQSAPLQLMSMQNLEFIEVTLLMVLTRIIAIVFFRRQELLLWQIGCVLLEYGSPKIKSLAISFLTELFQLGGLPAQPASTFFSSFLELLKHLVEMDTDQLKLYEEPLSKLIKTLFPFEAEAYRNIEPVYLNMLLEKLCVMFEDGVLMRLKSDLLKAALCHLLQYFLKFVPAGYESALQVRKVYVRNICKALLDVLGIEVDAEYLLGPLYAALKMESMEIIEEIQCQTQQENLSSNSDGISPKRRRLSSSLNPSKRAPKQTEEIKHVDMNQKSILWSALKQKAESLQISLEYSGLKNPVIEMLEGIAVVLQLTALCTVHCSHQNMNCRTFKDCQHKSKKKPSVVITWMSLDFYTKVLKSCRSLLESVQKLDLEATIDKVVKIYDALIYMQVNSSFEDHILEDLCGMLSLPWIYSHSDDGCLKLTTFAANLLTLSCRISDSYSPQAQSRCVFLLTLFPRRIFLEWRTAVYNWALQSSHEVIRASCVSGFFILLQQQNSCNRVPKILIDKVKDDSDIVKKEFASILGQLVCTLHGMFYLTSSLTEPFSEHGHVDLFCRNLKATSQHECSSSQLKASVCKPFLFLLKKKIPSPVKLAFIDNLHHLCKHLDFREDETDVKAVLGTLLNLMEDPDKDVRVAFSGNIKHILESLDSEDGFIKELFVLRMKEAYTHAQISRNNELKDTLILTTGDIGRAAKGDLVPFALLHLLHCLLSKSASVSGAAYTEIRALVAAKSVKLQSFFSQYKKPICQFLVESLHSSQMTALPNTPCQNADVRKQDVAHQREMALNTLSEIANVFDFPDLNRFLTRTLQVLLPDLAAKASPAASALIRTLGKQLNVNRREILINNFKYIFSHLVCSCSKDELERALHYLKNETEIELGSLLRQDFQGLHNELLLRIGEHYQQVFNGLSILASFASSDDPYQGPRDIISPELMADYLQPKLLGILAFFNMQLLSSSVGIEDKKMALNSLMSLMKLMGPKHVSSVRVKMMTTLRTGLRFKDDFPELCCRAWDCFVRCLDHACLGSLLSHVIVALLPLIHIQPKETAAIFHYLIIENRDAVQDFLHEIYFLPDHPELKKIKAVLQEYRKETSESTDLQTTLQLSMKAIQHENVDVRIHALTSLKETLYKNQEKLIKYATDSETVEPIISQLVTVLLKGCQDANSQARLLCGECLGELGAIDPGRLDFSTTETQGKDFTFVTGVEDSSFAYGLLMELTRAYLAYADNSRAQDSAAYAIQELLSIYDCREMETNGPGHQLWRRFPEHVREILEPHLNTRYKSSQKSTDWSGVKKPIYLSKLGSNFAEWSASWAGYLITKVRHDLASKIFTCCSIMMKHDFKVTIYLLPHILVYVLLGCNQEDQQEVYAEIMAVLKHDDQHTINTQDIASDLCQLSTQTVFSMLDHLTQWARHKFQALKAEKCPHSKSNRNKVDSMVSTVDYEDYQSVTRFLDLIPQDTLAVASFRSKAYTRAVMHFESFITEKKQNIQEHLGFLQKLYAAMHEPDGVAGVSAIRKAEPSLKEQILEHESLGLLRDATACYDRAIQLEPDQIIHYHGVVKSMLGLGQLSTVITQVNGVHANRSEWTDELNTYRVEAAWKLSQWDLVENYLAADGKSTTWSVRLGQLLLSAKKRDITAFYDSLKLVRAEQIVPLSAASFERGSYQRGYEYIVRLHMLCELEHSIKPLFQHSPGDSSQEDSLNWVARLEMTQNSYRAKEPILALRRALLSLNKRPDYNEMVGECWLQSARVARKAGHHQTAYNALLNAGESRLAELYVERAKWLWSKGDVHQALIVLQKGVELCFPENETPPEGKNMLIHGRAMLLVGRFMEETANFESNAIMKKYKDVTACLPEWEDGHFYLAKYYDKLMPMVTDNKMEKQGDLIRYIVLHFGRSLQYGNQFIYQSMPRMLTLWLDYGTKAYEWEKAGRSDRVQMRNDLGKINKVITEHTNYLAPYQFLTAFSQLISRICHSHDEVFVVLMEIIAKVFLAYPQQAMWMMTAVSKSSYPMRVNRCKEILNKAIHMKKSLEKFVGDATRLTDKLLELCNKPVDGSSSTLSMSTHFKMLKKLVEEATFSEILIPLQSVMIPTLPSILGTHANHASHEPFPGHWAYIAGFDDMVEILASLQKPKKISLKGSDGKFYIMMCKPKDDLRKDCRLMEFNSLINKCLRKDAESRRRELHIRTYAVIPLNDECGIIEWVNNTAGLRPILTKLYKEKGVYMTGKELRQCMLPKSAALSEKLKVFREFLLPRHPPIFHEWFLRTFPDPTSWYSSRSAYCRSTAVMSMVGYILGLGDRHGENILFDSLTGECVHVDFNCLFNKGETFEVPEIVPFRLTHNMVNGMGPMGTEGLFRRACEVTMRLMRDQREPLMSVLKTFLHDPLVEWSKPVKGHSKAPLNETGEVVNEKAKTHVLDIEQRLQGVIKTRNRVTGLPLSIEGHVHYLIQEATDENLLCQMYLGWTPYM

B1: Asparagine endopeptidase (enzyme, UniProt Q99538 18-323)
chain: VPIDDPEDGGKHWVVIVAGSNGWYNYRHQADACHAYQIIHRNGIPDEQIVVMMYDDIAYSEDNPTPGIVINRPNGTDVYQGVPKDYTGEDVTPQNFLAVLRGDAEAVKGIGSGKVLKSGPQDHVFIYFTDHGSTGILVFPNEDLHVKDLNETIHYMYKHKMYRKMVFYIEACESGSMMNHLPDNINVYATTAANPRESSYACYYDEKRSTYLGDWYSVNWMEDSDVEDLTKETLHKQYHLVKSHTNTSHVMQYGNKTISTMKVMQFQGMKRKASSPVPLPPVTHLDLTPSPDVPLTIMKRKLMNTN
binding [1]: binds
binding [2]: binds

From article PMC11866873
